Data taken from ChEMBL document CHEMBL3988442, “University of Dundee, Small-Polar-MMV Screening Library” (2021).

The chains behind the UniProt entries cited, without tags or fusion partners. Residues count along the entry.
UniProt A4I591, 1-473: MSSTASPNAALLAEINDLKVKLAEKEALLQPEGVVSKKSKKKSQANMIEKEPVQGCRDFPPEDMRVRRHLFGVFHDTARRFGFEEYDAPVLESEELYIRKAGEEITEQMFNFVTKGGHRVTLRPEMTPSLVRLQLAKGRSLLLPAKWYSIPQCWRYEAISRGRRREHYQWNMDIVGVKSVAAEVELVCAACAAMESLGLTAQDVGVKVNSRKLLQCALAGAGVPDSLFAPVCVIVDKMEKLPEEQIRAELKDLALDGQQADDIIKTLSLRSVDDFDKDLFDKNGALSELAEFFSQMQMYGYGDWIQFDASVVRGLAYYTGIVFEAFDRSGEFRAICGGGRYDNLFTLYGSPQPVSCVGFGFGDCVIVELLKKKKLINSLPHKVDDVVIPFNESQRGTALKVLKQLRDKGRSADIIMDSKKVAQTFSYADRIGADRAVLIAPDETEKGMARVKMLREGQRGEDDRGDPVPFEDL

LiHisRS: 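Histidine-tRNA ligase, Leishmania infantum (UniProt A4I591). Enzyme assay of histidyl-tRNA synthetase; the read-out is not stated. Concentration: 30 µM. Higher reads as stronger inhibition (inferred: compounds with an IC50 in retests scored well above the rest). The assay is labelled LdHisRS but filed under L. infantum. About 69,000 compounds were tested under these conditions; 0.6% (about 410) showed 50% or more at least once.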
Toxoplasma: 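Assay of Toxoplasma gondii numbers, read through their beta-galactosidase reporter with a colour substrate. Compounds at 10 µM. Higher reads as fewer parasites (inferred from which compounds were picked for retests). Size under these conditions: about 67,000 compounds, about 260 of them at 50% or above in at least one test.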

The filed quantity is “Percent Effect” (%).
The controls that fix the scale are not given in the record; negative values are as filed.
The compounds are a random part of those screened.

Result for Nc1nc(CC(=O)N2CCCC(CCc3cccc(F)c3)C2)cc(=O)[nH]1 (configuration not stated) was LiHisRS: 78.33%; Toxoplasma: 28.71%. CC(=O)NCCC(=O)NCCCOc1c(C)cccc1C gave LiHisRS: 18.75%; Toxoplasma: -8.978%. For CNS(=O)(=O)CC(=O)N(Cc1c(F)cccc1F)C1CCCC1 the result was LiHisRS: 14.52%; Toxoplasma: 5.298%. With O=C(NC1CC1)[C@H]1C[C@@H]2CCN(Cc3ccc4c(c3)OCO4)C[C@@H]2O1 the screen gave LiHisRS: 1.818%. With Cc1nc(N2CCCC2)ncc1-c1cc(O)n2ncnc2n1 the screen gave LiHisRS: 5.172%; Toxoplasma: 3.3%.

Result for Cc1cnnn1Cc1nnn2c1CN(Cc1cccs1)CCC2 was LiHisRS: 12.82%. For CC(C)C(=O)N1CCCC12CCN(C(=O)c1ccno1)C2 (configuration not stated) the result was LiHisRS: -26.32%; Toxoplasma: 8.539%. Result for Cl.OC[C@H]1CC[C@]2(CC1)CN(Cc1ccccn1)Cc1ccccc1O2 was Toxoplasma: -8.008%. CC(C)c1ncc(CN2CCCC2c2[nH]ncc2C(=O)N(C)C)cn1 (configuration not stated) gave LiHisRS: 8.451%. For COc1cccc(CN2CCC(c3nn(CCN)c4nccnc34)C2)c1 (configuration not stated) the result was LiHisRS: 16%; Toxoplasma: 11.32%.

For Cc1noc(C)c1-c1cncc(C2CCCN2Cc2ccncc2)n1 (configuration not stated) the result was LiHisRS: 8.333%; Toxoplasma: -0.4484%. For COCCN(C(=O)c1cc(C)no1)c1ccc(C#N)cc1 the result was LiHisRS: 13.33%; Toxoplasma: 0.1129%. [H][C@@]12CN(CC3CCCC3)C[C@]1([H])OCCN2c1cnccn1 gave Toxoplasma: -11.25%. For O=C(NCCc1ccn(-c2ccccc2)n1)N1CCC1 the result was LiHisRS: 26.67%; Toxoplasma: 1.595%. Cn1cnc2c1C(COCc1ccccc1)N(Cc1cccnc1)CC2 (configuration not stated) read LiHisRS: 13.89%.

With CC(Cn1cccn1)NC(=O)Nc1ccccn1 (configuration not stated) the screen gave LiHisRS: 13.46%; Toxoplasma: 5.34%. Result for Cc1cccc(NC2CCc3c2[nH]c(=O)n(C2CCCCC2)c3=O)c1C (configuration not stated) was LiHisRS: -2.632%; Toxoplasma: 17.48%. With C[C@@H]1CN(C2CCN(Cc3cnc(-c4cccs4)nc3)CC2)C[C@H](C)O1 the screen gave LiHisRS: 4.396%; Toxoplasma: 6.244%. Result for CCCC(=O)N(CCN1CCOCC1)c1nc2c(OC)ccc(C)c2s1.Cl was Toxoplasma: 12.87%. COc1cc(-c2noc(C(CC(C)C)N3CCCCC3=O)n2)ccn1 (configuration not stated) read LiHisRS: 15.38%; Toxoplasma: -10.72%.

CC(=O)N1CC[C@H]2[C@H](C[C@@H](Cn3cncn3)N2c2nccs2)C1 gave LiHisRS: 8.547%. Cc1cc(C)n(CC2CN(CC(=O)NCc3ccccn3)CCO2)n1 (configuration not stated) gave LiHisRS: 7.826%; Toxoplasma: -7.831%. Cn1ncc2c1NC(=O)CC2c1c(F)cccc1Cl (configuration not stated) read LiHisRS: 20%; Toxoplasma: -17.37%. O=C(CCc1nnc(-c2ccccc2)o1)N1CCN(CC2CC2)CC1 gave LiHisRS: 8.929%; Toxoplasma: -3.062%. COc1ccc(CN2CCO[C@H]3CN(C(=O)C4CC4)CC[C@H]3C2=O)cc1 read LiHisRS: 11.11%.

Cc1nc(-c2ccsc2)ccc1C(=O)NCCCN1CCOCC1 read LiHisRS: 23.21%; Toxoplasma: 1.049%. Result for Cc1cc(C)nc(NC2CCCN(CCCc3ccccc3)C2)n1 (configuration not stated) was LiHisRS: 15.96%; Toxoplasma: -13.34%. Result for Cc1cc2c(cc1C)OC(C(=O)NCCNC(=O)C1CCCC1)C2 (configuration not stated) was LiHisRS: -5.333%; Toxoplasma: 3.846%. Result for CCc1ccc(NC(=O)c2ncc(C(N)=O)cc2Cl)cc1F was LiHisRS: 9.877%; Toxoplasma: -0.4049%. COCCNc1ncc(-c2onc(C)c2C)c(-c2ccco2)n1 gave LiHisRS: 5.755%; Toxoplasma: 28.93%.

Cc1ccsc1C(O)CNC(=O)Cc1ccc(S(=O)(=O)C(C)C)cc1 (configuration not stated) read LiHisRS: 20.78%; Toxoplasma: 4.742%. For [H][C@@]12CCN(Cc3ccco3)C[C@@]1([H])[C@H](C(=O)N1CCCCO1)CCO2 the result was Toxoplasma: -0.6158%. CN(Cc1ccco1)C(=O)C1CSCN1C(=O)c1cccnc1 (configuration not stated) read LiHisRS: 10.61%; Toxoplasma: -0.9416%. For CC(SCc1ccc(Br)c2cccnc12)C(N)=O (configuration not stated) the result was LiHisRS: 15.87%; Toxoplasma: 24.32%. With COCc1cncc2c1CCN(Cc1ccccn1)C2 the screen gave LiHisRS: 25%.